* marks the point of attachment. Boc = CC(C)(C)OC(=O)*; OtBu = CC(C)(C)O*

This data set in a line: general procedure: solution-phase peptide synthesis; isobutyl chloroformate / N-methylmorpholine (mixed anhydride). Conditions: coupling step.

Boc-PIPY-OMe returned a step yield of 65.7%.

For the substance Boc-VE(OtBu)PIPY-OMe, the step yield is 40.7%.

The values are drawn from patent publication US4637997A (Institut National de la Sante et de la Recherche Medicale, priority 1984, dated 1987).
